Data taken from patent US8871179B2, “Method for monitoring blood flow and metabolic uptake in tissue with radiolabeled alkanoic acid” (The General Hospital Corporation, priority 2003, dated 2014).
At least one structure is not confirmed: it was looked up by name or label, or the drawing left a doubt.

Test: Heart-to-blood ratios in rats 60 minutes after administration of labeled analogs
Assay type: in vivo

SMILES | Heart to blood ratio
CCCCCCCCC([18F])CCCCC1CC1CC(=O)O (centres unmarked) [[^18F]-FCPHA, [^18F]-9-fluoro-3,4-cyclopropyl-heptadecanoic acid] | 20:1
CCCCCCCCCCCCCCC(C)C[11C](=O)O (centres unmarked) [[^11C]BMHA, 1-[11C] betamethylheptadecanoic acid] | 10:1
